Results are given in words; binding and its absence hold for the method and conditions named. In cells and extracts the contact can be indirect. Here binding means that the protein was enriched with, or labelled near, the bait; the list need not be complete.
Target: NBCn1 C-terminal tail (bait of the pull-down with mass spectrometry)
Assay: affinity purification with mass spectrometry

B1: LLGL1 (lethal (2) giant larvae 1) (protein, UniProt Q15334 1-1064)
chain: MMKFRFRRQGADPQREKLKQELFAFNKTVEHGFPNQPSALAFDPELRIMAIGTRSGAVKIYGAPGVEFTGLHRDAATVTQMHFLTGQGRLLSLLDDSSLHLWEIVHHNGCAHLEEALSFQLPSRPGFDGASAPLSLTRVTVVLLVAASDIAALGTEGSSVFFLDVTTLTLLEGQTLAPGEVLRSVPDDYRCGKALGPVESLQGHLRDPTKILIGYSRGLLVIWNQASQCVDHIFLGNQQLESLCWGRDSSTVVSSHSDGSYAVWSVDAGSFPTLQPTVATTPYGPFPCKAINKILWRNCESGGHFIIFSGGMPRASYGDRHCVSVLRAETLVTLDFTSRIIDFFTVHSTRPEDEFDDPQALAVLLEEELVVLDLQTPGWPAVPAPYLAPLHSSAITCSAHVASVPAKLWARIVSAGEQQSPQPVSSALSWPITGGRNLAQEPSQRGLLLTGHEDGTVRFWDASGVALRPLYKLSTAGLFQTDCEHADSLAQAAEDDWPPFRKVGCFDPYSDDPRLGVQKVALCKYTAQMVVAGTAGQVLVLELSDVPVEQAVSVAIIDLLQDREGFTWKGHERLSPRTGPLPWPAGFQPRVLVQCLPPAAVTAVTLHTEWSLVAFGTSHGFGLFDYQRKSPVLARCTLHPNDSLAMEGPLSRVKSLKKSLRQSFRRIRKSRVSGKKRAANASSKLQEANAQLAEQACPHDVEMTPVQRRIEPRSADDSLSGVVRCLYFADTFLRDGAHHGPTMWAGTNSGSVFAYALEVPAAAVGGEKRPEQAVEAVLGKEVQLMHRAPVVAIAVLDGRGRPLPEPYEASRDLAQAPDMQGGHAVLIASEEQFKVFTLPKVSAKTKFKLTAHEGCRVRKVALATFASVACEDYAETCLACLTNLGDVHVFSVPGLRPQVHYSCIRKEDISGIASCVFTRHGQGFYLISPSEFERFSLSARNITEPLCSLDINWPRDATQASYRIRESPKLSQANGTPSILLAPQSLDGSPDPAHSMGPDTPEPPEAALSPMSIDSATSADTTLDTTGDVTVEDVKDFLGSSEESEKNLRNLAEDEAHACAILIK
binding: binds
